The test concerns the target Sm.5HTRL (Schistosoma mansoni, UniProt A0A173FEI8).

The chains behind the UniProt entries cited, without tags or fusion partners. Residues count along the entry.
UniProt A0A173FEI8, 1-547: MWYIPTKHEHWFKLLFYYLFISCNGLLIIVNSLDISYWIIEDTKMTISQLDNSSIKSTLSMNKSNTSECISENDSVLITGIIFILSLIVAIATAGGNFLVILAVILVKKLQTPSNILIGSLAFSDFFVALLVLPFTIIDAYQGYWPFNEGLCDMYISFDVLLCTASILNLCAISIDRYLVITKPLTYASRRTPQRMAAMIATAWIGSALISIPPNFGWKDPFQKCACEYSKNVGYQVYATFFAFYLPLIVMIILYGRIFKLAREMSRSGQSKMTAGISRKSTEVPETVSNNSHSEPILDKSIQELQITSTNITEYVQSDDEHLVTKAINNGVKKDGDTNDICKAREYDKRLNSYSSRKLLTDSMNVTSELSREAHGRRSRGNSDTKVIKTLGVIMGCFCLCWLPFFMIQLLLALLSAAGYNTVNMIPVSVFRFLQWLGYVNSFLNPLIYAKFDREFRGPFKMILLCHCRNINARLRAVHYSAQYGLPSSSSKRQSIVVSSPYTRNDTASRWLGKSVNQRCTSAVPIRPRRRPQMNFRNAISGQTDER

Molecules are shown by their SMILES.

We go through one compound from PMC6095690, “Coalescing beneficial host and deleterious antiparasitic actions as an antischistosomal strategy” (eLife, 2018).

Consider `CCN(CC)C(=O)N[C@H]1C=C2c3cccc4[nH]cc(c34)C[C@H]2N(C)C1` [lisuride, Lisuride, reference compound], for which the “type of activity at schistosome 5-HTRs” value is “partial agonists”.
